Some of the results follow. These are further read-outs of the screen, such as a control signal, another cell line or another target. No call is given for them. Most of these compounds were active or inconclusive in the main read-out, so they are no random draw. The note in brackets gives the kind of curve behind each potency; many fits are weak.
Experiment: qHTS Assay for Lipid Storage Modulators in Drosophila S3 Cells;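 for cell number change: cells counted by Cell Tracker Red CMTPX staining in the red channel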
Settings: BODIPY lipid droplet fluorescence, 18-24 h; for cell number change: measured here: cell count max response, cells fed with added oleic acid
In short: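 Drosophila S3 cells got compounds at several concentrations plus oleic acid (400 uM solution). Laser-scanning cytometry with 488 nm excitation read lipid droplets at 500-530 nm and cells at 575-640 nm. Percent activity was relative to 20 uM Triacsin C.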

[1] = measured here: lipid fluorescence (Fed channel) AC50, cells fed with added oleic acid
[2] = measured here: cell number channel AC50, cells fed with added oleic acid

Row | Structure (SMILES) | cell number change | AC50 [1] | AC50 [2]
1 | Cc1ccc(NC(=O)C2CCN(C(=O)NCc3ccccc3)CC2)cc1C | 8.97% |  | 
2 | O=C(CC(c1cccs1)S(=O)(=O)c1ccccc1)c1ccc(F)cc1 (stereo not given) | -26.6% | 6.51 µM [falling, single point] | 
3 | O=C(Nc1ccccc1C(=O)NC(Cc1ccccc1)C(=O)O)c1ccccc1 (stereo not given) | 1.27% | 6.51 µM [falling, single point] | 
4 | COc1ccc(C(C(=O)NCC2CCCO2)N(C(=O)Cn2nnc3ccccc32)c2ccc(NC(C)=O)cc2)cc1 (stereo not given) | 19.2% |  | 0.82 µM [rising, full curve, poor fit]
5 | CCn1cc(C(=O)OCC(=O)c2cc(C)n(-c3ccc(OC(F)F)cc3)c2C)c(=O)c2ccc(C)nc21 | -11% | 6.51 µM [rising, partial curve, poor fit] | 1.3 µM [falling, full curve]
6 | CSc1ccc(/C=N/NC(=O)c2ccc(C)c(C)c2)cc1 | 12% | 3.66 µM [rising, single point] | 3.66 µM [rising, single point]
7 | O=S(=O)(c1cnc(Cl)c(Cl)c1)N1CCc2ccccc21 | -7.42% | 0.206 µM [falling, full curve, poor fit] | 
8 | O=C(/C=C/c1ccc(OCc2cccc(Cl)c2)cc1)N1CCOCC1 | 25.7% |  | 
9 | COc1ccc(Cn2c(SCc3ccc(C)cc3)nc3cc(OC)c(OC)cc3c2=N)cc1Cl | -166% | 23.1 µM [falling, single point] | 11.6 µM [falling, partial curve]
10 | CC(C)CCSc1nc(N)c(C#N)cc1C#N |  |  | 6.51 µM [rising, single point]
11 | COc1ccc(CCC(=O)Nc2nnc(C(C)(C)C)s2)cc1 | -18% | 6.51 µM [falling, single point] | 
12 | Cc1nn(-c2cc(C)c3ccccc3n2)c2c1CCC2 |  | 1.64 µM [rising, partial curve] | 
13 | Cc1ccc(C)c(C(=O)C(C)OC(=O)CN2C(=O)NC3(CC(C)CC(C)(C)C3)C2=O)c1 (stereo not given) | -0.867% | 0.366 µM [falling, full curve] | 
14 | O=C1N=c2ccc(Br)cc2=C1c1sc(=S)n(NS(=O)(=O)c2ccccc2)c1O | -12.1% |  | 0.00461 µM [falling, full curve, poor fit]
15 | CCOC(=O)c1nc(N)c(=O)n(-c2ccccc2)n1 |  | 0.116 µM [rising, single point] | 
16 | O=C(Nc1ccc(S(=O)(=O)NCC2CCCO2)cc1)c1ccccc1 (stereo not given) | -15% | 29.1 µM [falling, single point] | 
17 | O=C(Cn1ccc2ccccc2c1=O)NCC(=O)N1CCN(c2ccc(F)cc2)CC1 | 46% |  | 29.1 µM [rising, single point]
18 | Cc1ccc(CNS(=O)(=O)c2ccc3c(c2)N(C)CCO3)cc1 |  | 0.116 µM [rising, single point] | 
19 | CCCCCCCCNC(=O)CC(NS(=O)(=O)c1ccc(NC(C)=O)cc1)C(C)C (stereo not given) | -1.15% | 29.1 µM [rising, single point] | 
20 | C=CCN(C(=O)CSc1nnnn1C)c1nc(-c2ccccc2)cs1 | 72.4% | 25.9 µM [rising, single point] | 23.1 µM [rising, single point]

Row | Structure (SMILES) | cell number change | AC50 [1] | AC50 [2]
21 | COc1ccc(CN(C)C(=O)Cn2ccc(NC(=O)OCc3ccccc3)nc2=O)cc1OC | -51.8% | 29.1 µM [falling, single point] | 29.1 µM [falling, single point]
22 | Cc1ccc(C)c(NC(=O)CN(C)C(=O)CN2C(=O)NC3(CCc4ccccc43)C2=O)c1 (stereo not given) | 14.9% | 7.31 µM [rising, single point] | 
23 | CCC(=O)c1ccc(OCCN2CCOCC2)cc1 | 1.66% | 1.84 µM [falling, partial curve] | 
24 | O=C(CSc1nnc(-c2ccc(Cl)cc2Cl)n1C1CCCCC1)N1CCCC1 | 85.6% | 4.61 µM [rising, single point] | 3.26 µM [rising, full curve]
25 | C/C(=N\NC(=O)CN1CCOCC1)C(C)(C)C | -20.7% | 23.1 µM [falling, partial curve] | 
26 | CCOc1nc(OCC)nc(N2CCC(C)CC2)n1 | -84.4% |  | 
27 | Cc1ccc(C(=O)Nc2cccc(C(=O)NC3CCCC3)c2)cc1 |  | 18.4 µM [falling, single point] | 
28 | COc1ccc(Cc2nnc(NC(=O)Nc3ccccc3)s2)cc1OC | -10.7% | 1.84 µM [rising, single point] | 
29 | COc1ccc(-c2nc(NC(=O)c3n[nH]c(=O)c4ccccc34)sc2C)cc1 | 37.3% | 20.6 µM [rising, partial curve] | 13 µM [rising, partial curve]
30 | c1ccc(CN2CCN(Cc3cn4cccnc4n3)CC2)cc1 |  | 0.651 µM [falling, full curve] | 0.651 µM [falling, full curve]
31 | Cc1[nH]c2ccc(-c3nnc(SCC(=O)N4CCCc5ccccc54)o3)cc2c1C | -0.348% | 1.46 µM [rising, full curve, poor fit] | 
32 | CCc1ccc(OCC(=O)N/N=C(\C)c2ccc(-n3ccnc3)cc2)cc1 | 24.1% | 14.6 µM [rising, partial curve, poor fit] | 
33 | CCC(CO)Oc1cc(NC(=O)c2ccc(F)cc2)c2ncn(C(C)C)c2c1 (stereo not given) | 4.46% | 1.16 µM [falling, single point] | 
34 | CCOc1ccc(C(C(=O)NCC2CCCO2)N(C(=O)c2snc(C(N)=O)c2N)c2ccc(F)cc2)cc1 (stereo not given) | -20.5% | 29.1 µM [rising, single point] | 
35 | CC(C)(C)c1ccc(C(=O)NCCC(=O)Nc2ccc(S(=O)(=O)Nc3nccs3)cc2)cc1 | -19% |  | 
36 | Cc1nnc(N2C(=O)C(=O)/C(=C(\O)c3ccc4c(c3)CC(C)O4)C2c2ccccc2)s1 (stereo not given) | -20.4% |  | 
37 | CC(=O)Nc1ccc(S(=O)(=O)NC2=C(N3CCN(Cc4ccccc4)CC3)C(=O)c3ccccc3C2=O)cc1 | -38.7% | 2.91 µM [falling, partial curve, poor fit] | 0.0731 µM [falling, full curve, poor fit]
38 | CC1(C)CC(=O)C(C2C3=C(CC(C)(C)CC3=O)Oc3ccccc32)C(=O)C1 (stereo not given) | -14.9% |  | 
39 | O=C(Nc1nccs1)c1ccc(COc2ccccc2)o1 | -17% | 6.51 µM [rising, single point] | 
40 | CCC(CC)C(=O)Nc1cc(Cl)ccc1C | 47.1% |  | 18.4 µM [rising, single point]

Row | Structure (SMILES) | cell number change | AC50 [1] | AC50 [2]
41 | COc1ccc(-c2c(C)nc(N)nc2-c2ccc(OCc3ccc(C)cc3)cc2O)cc1OC | 6.77% |  | 
42 | O=C(CCl)Nc1cc(S(=O)(=O)N2CCCCCC2)ccc1Cl | -47.3% |  | 2.91 µM [falling, partial curve]
43 | COCC(C)n1c(C)cc(C(=O)COC(=O)c2ccc3c(c2)NC(=O)CS3)c1C (stereo not given) | -38% | 20.6 µM [falling, partial curve] | 
44 | COc1ccc(C(C(=O)NCC2CCCO2)N(Cc2ccco2)C(=O)c2snc(C(N)=O)c2N)cc1OC (stereo not given) | 3.85% |  | 
45 | Cc1c(C(=O)NCC(C)C)sc2nc(-c3ccc(F)cc3)cn12 | 116% | 2.06 µM [rising, partial curve] | 2.31 µM [rising, partial curve]
46 | O=C(c1ccc(Cn2cc(Br)cn2)cc1)N1N=C(C(F)F)CC1(O)C(F)F (stereo not given) | -3.6% | 0.00411 µM [falling, full curve, poor fit] | 
47 | CC(NC(=O)C1CCC1)c1ccc2c(c1)OCO2 (stereo not given) | 18.3% |  | 
48 | CC1CCCC(C)N1Cc1cn2ccccc2n1 (stereo not given) | 11.3% |  | 
49 | Cc1ccc(-n2nc(-c3ccco3)cc2C(=O)NCc2cccnc2)cc1 | 1.38% | 0.731 µM [rising, full curve, poor fit] | 
50 | COc1ccc(S(=O)(=O)N2CCCC(C(=O)Nc3cccc(C(C)=O)c3)C2)cc1 (stereo not given) | -3.64% |  | 
51 | O=C(COc1ccccc1Br)NCc1ccccn1 |  |  | 6.51 µM [rising, single point]
52 | Clc1ccc(-c2csc(N3CCN(c4ccccc4)CC3)n2)cc1 | 14.5% |  | 0.259 µM [falling, partial curve, poor fit]
53 | Cc1c(-c2ccccc2)oc2c(C(=O)N3CCN(c4ccccc4F)CC3)cccc2c1=O | 12.4% | 14.6 µM [rising, partial curve, poor fit] | 
54 | COCC(=O)Nc1nc2ccc(S(C)(=O)=O)cc2s1 | 9% |  | 
55 | CC(C)(C)OC(=O)N1CCC[C@H]1c1nnc(SCc2ccccc2F)o1 |  | 0.092 µM [falling, full curve, poor fit] | 6.51 µM [rising, single point]
56 | CCN(CC)S(=O)(=O)c1cccc(C(=O)OCC(=O)c2ccc3c(c2)NC(=O)CO3)c1 | 12.4% | 0.461 µM [rising, full curve, poor fit] | 
57 | CCOC(=O)N1CCN(C(=O)c2ccccc2NC(=O)c2ccc(C(C)(C)C)cc2)CC1 | -0.549% | 0.146 µM [rising, full curve, poor fit] | 
58 | CN(CCc1ccccn1)c1ncnc2[nH]ncc12 |  | 1.84 µM [rising, partial curve] | 
59 | Cn1cc(/C=C2\SC(=S)N(NC(=O)c3ccccc3Cl)C2=O)c2ccccc21 | 7.29% | 4.11 µM [rising, single point] | 
60 | O=C1NC(c2ccccc2)=C(c2ccccc2)C1=O | 0.97% | 0.0291 µM [falling, full curve, poor fit] | 

Excerpt: entries 42 to 44
Row | Structure (SMILES) | cell number change | AC50 [1] | AC50 [2]
42 | O=C(CCl)Nc1cc(S(=O)(=O)N2CCCCCC2)ccc1Cl | -47.3% |  | 2.91 µM [falling, partial curve]
43 | COCC(C)n1c(C)cc(C(=O)COC(=O)c2ccc3c(c2)NC(=O)CS3)c1C (stereo not given) | -38% | 20.6 µM [falling, partial curve] | 
44 | COc1ccc(C(C(=O)NCC2CCCO2)N(Cc2ccco2)C(=O)c2snc(C(N)=O)c2N)cc1OC (stereo not given) | 3.85% |  | 

— PubChem BioAssay AID2685 (National Center for Advancing Translational Sciences (NCATS), 2010)
